The text below walks through data of PMC8050080, “Cannabis sativa terpenes are cannabimimetic and selectively enhance cannabinoid activity” (Scientific Reports, 2021).

The chains behind the UniProt entries cited, without tags or fusion partners.
UniProt P21554: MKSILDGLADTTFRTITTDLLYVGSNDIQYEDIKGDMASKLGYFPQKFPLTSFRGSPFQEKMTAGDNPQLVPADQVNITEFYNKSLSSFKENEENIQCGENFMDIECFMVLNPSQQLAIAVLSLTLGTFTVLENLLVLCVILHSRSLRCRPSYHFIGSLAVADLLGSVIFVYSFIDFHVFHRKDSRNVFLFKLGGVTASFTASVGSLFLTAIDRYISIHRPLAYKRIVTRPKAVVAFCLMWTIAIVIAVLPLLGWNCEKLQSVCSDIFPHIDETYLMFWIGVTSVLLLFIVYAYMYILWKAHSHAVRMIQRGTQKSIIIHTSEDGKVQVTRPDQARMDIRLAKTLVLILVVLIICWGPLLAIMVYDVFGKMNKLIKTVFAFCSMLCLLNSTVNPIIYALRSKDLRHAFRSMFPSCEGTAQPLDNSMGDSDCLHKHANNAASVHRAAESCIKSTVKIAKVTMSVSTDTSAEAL
UniProt P32121: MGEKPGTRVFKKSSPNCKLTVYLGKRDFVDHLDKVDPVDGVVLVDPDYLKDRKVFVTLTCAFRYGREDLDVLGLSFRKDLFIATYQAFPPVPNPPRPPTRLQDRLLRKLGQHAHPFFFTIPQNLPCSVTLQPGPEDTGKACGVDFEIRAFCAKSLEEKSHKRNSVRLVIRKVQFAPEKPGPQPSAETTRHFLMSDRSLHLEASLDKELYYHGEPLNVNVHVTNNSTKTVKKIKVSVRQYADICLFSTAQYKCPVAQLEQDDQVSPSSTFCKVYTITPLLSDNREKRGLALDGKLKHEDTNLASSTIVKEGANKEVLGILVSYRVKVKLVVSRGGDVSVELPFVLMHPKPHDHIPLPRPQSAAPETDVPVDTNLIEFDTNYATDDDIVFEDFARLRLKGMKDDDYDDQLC

No constants are given. Whether binding was seen depends on the method and setting. In cells and extracts the contact can be indirect. Some binding calls cover weakened binding; strength is not graded here.

The assay deals with cannabinoid receptor type 1 (CB1 receptor) (human) (UniProt P21554). Kind of assay: split reporter; PathHunter assay; CB1-CHO-βarr2 cells in 384-well plates (5000 cells/well) in Opti-MEM with 1% FBS; treated with varying concentrations of WIN55,212-2 for 1.5 h; luminescence read.

As to βarrestin2 (from UniProt P32121 1-409), the binding result is on record as “binds”.
